This note sets out measurements from patent publication US10233213 (dated 2019).

A short description of the data set: general procedure: peptide synthesis; succinimidyl carbamate building blocks (Boc-protected in solution); azide-protect. Particulars: coupling step.
For “Boc Leu-Lys(2ClZ)^u-Leu-Lys(2ClZ)^u-Pro^u-N3”, the step yield turned out to be 65%.

In turn, “Boc Lys(2ClZ)^u-Leu-Lys(2ClZ)^u-Pro^u-N3” had a step yield of 68%.

In turn, “Boc-Glu(OBn)^u-Leu^u-Lys(2ClZ)^u-Ala^u-NHMe” came in with a step yield of 48%.

As for “Boc-Leu^u-Glu(OBn)^u-Leu^u-Lys(2ClZ)^u-Pro^u-Leu^u-Glu(OBn)^u-Leu^u-Lys(2ClZ)^u-Ala^u-NHMe”, the step yield came out at 56%.

“Boc-Leu^u-Glu(OBz)^u-Leu^u-Lys(2ClZ)^u-Ala^u-NHMe” registered a step yield of 67%.
